# Reference: the supplement of paper PMC8728848
# This is one part of the list.
# Key:
# Assay in all cases: glycan array binding signal (z-score within array); higher = stronger binding
# Conditions in all cases: glycan notation: IUPAC condensed, linker removed
# [1] = target: Fuc(a1-2)Gal(b1-4)GlcNAc(b1-3)Gal(b1-4)GlcNAc(b1-3)Gal(b1-4)GlcNAc
# Summary of the method: (§1)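 The Consortium for Functional Glycomics database supplied 3228 glycan arrays, of which those lacking an available protein sequence were dropped. The binding signal, a within-array Z-score, was averaged across arrays of the same protein sequence and across linkers. Negative scores can be read as non-binding.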
# [2] = target: Fuc(a1-2)Gal(b1-4)GlcNAc(b1-3)GalNAc
# Summary of the method: as §1
# [3] = target: Fuc(a1-2)Gal(b1-4)GlcNAc(b1-3)[Fuc(a1-2)Gal(b1-4)GlcNAc(b1-6)]GalNAc
# Summary of the method: as §1
# [4] = target: Fuc(a1-2)Gal(b1-4)GlcNAc(b1-3)[Fuc(a1-3)[Gal(b1-4)]GlcNAc(b1-6)]Gal(b1-4)Glc
# Summary of the method: as §1
# [5] = target: Fuc(a1-2)Gal(b1-4)GlcNAc(b1-6)GalNAc
# Summary of the method: as §1
# [6] = target: Fuc(a1-2)Gal(b1-4)GlcNAc6S
# Summary of the method: as §1
# [7] = target: Fuc(a1-2)Gal(b1-4)[Fuc(a1-3)]GlcNAc
# Summary of the method: as §1
# [8] = target: Fuc(a1-2)Gal(b1-4)[Fuc(a1-3)]GlcNAc(b1-2)Man(a1-3)[Fuc(a1-2)Gal(b1-4)[Fuc(a1-3)]GlcNAc(b1-2)Man(a1-6)]Man(b1-4)GlcNAc(b1-4)[Fuc(a1-6)]GlcNAc
# Summary of the method: as §1
# [9] = target: Fuc(a1-2)Gal(b1-4)[Fuc(a1-3)]GlcNAc(b1-2)[Fuc(a1-2)Gal(b1-4)[Fuc(a1-3)]GlcNAc(b1-4)]Man(a1-3)[Fuc(a1-2)Gal(b1-4)[Fuc(a1-3)]GlcNAc(b1-2)Man(a1-6)]Man(b1-4)GlcNAc(b1-4)GlcNAc
# Summary of the method: as §1
# [10] = target: Fuc(a1-2)Gal(b1-4)[Fuc(a1-3)]GlcNAc(b1-3)Gal(b1-4)[Fuc(a1-3)]GlcNAc
# Summary of the method: as §1
# [11] = target: Fuc(a1-2)Gal(b1-4)[Fuc(a1-3)]GlcNAc(b1-3)Gal(b1-4)[Fuc(a1-3)]GlcNAc(b1-3)Gal(b1-4)[Fuc(a1-3)]GlcNAc
# Summary of the method: as §1
# [12] = target: Fuc(a1-2)Gal(b1-4)[Fuc(a1-3)]GlcNAc(b1-3)GalNAc
# Summary of the method: as §1
# [13] = target: Fuc(a1-2)Gal(b1-4)[Fuc(a1-3)]GlcNAc(b1-3)[Neu5Ac(a2-6)Gal(b1-4)GlcNAc(b1-6)]Gal(b1-4)Glc
# Summary of the method: as §1
# [14] = target: Fuc(a1-2)Gal3S(b1-4)GlcNAc
# Summary of the method: as §1
# [15] = target: Fuc(a1-2)Gal6S(b1-3)GlcNAc
# Summary of the method: as §1
# [16] = target: Fuc(a1-2)Gal6S(b1-3)GlcNAc6S
# Summary of the method: as §1
# Fuc(a1-2)Gal6S(b1-4)Glc = target: Fuc(a1-2)Gal6S(b1-4)Glc
# Summary of the method: as §1
# [17] = target: Fuc(a1-2)Gal6S(b1-4)Glc6S
# Summary of the method: as §1
# Fuc(a1-2)[Gal(a1-3)]Gal = target: Fuc(a1-2)[Gal(a1-3)]Gal
# Summary of the method: as §1
# [18] = target: Fuc(a1-2)[Gal(a1-3)]Gal(b1-3)GalNAc
# Summary of the method: as §1
# [19] = target: Fuc(a1-2)[Gal(a1-3)]Gal(b1-3)GalNAc(b1-3)Gal(a1-4)Gal(b1-4)Glc
# Summary of the method: as §1
# [20] = target: Fuc(a1-2)[Gal(a1-3)]Gal(b1-3)GlcNAc
# Summary of the method: as §1
# [21] = target: Fuc(a1-2)[Gal(a1-3)]Gal(b1-3)GlcNAc(b1-2)Man(a1-3)[Fuc(a1-2)[Gal(a1-3)]Gal(b1-3)GlcNAc(b1-2)Man(a1-6)]Man(b1-4)GlcNAc(b1-4)GlcNAc
# Summary of the method: as §1
# [22] = target: Fuc(a1-2)[Gal(a1-3)]Gal(b1-3)GlcNAc(b1-2)Man(a1-3)[Fuc(a1-2)[Gal(a1-3)]Gal(b1-3)GlcNAc(b1-2)Man(a1-6)]Man(b1-4)GlcNAc(b1-4)[Fuc(a1-6)]GlcNAc
# Summary of the method: as §1
# [23] = target: Fuc(a1-2)[Gal(a1-3)]Gal(b1-3)GlcNAc(b1-3)GalNAc
# Summary of the method: as §1
# [24] = target: Fuc(a1-2)[Gal(a1-3)]Gal(b1-3)GlcNAc(b1-6)GalNAc
# Summary of the method: as §1
# [25] = target: Fuc(a1-2)[Gal(a1-3)]Gal(b1-4)Glc
# Summary of the method: as §1
# [26] = target: Fuc(a1-2)[Gal(a1-3)]Gal(b1-4)GlcNAc
# Summary of the method: as §1
# [27] = target: Fuc(a1-2)[Gal(a1-3)]Gal(b1-4)GlcNAc(b1-2)Man
# Summary of the method: as §1
# [28] = target: Fuc(a1-2)[Gal(a1-3)]Gal(b1-4)GlcNAc(b1-2)Man(a1-3)[Fuc(a1-2)[Gal(a1-3)]Gal(b1-4)GlcNAc(b1-2)Man(a1-6)]Man(b1-4)GlcNAc(b1-4)GlcNAc
# Summary of the method: as §1
binder,measurement,setting,value
"Thrombomodulin Extracellular (Mus musculus), P15306 (protein) MLGIFFLGVLAPASLGLSALAKLQPTGSQCVEHECFALFQGPATFLDASQACQRLQGHLMTVRSSVAADVISLLLSQSSMDLGPWIGLQLPQGCDDPVHLGPLRGFQWVTGDNHTSYSRWARPNDQTAPLCGPLCVTVSTATEAAPGEPAWEEKPCETETQGFLCEFYFTASCRPLTVNTRDPEAAHISSTYNTPFGVSGADFQTLPVGSSAAVEPLGLELVCRAPPGTSEGHWAWEATGAWNCSVENGGCEYLCNRSTNEPRCLCPRDMDLQADGRSCARPVVQSCNELCEHFCVSNAEVPGSYSCMCETGYQLAADGHRCEDVDDCKQGPNPCPQLCVNTKGGFECFCYDGYELVDGECVELLDPCFGSNCEFQCQPVSPTDYRCICAPGFAPKPDEPHKCEMFCNETSCPADCDPNSPTVCECPEGFILDEGSVCTDIDECSQGECFTSECRNFPGSYECICGPDTALAGQISKDCDPIPVREDTKEEEGSGEPPVSPTPGSPTGPPSARPVHSGVLIGISIASLSLVVALLALLCHLRKKQGAARAELEYKCASSAKEVVLQHVRTDRTLQKF",glycan array binding signal (z-score),[1],1.35
same,glycan array binding signal (z-score),[2],-0.122
same,glycan array binding signal (z-score),[3],-0.15
same,glycan array binding signal (z-score),[4],-0.041
same,glycan array binding signal (z-score),[5],0.42
same,glycan array binding signal (z-score),[6],-0.316
same,glycan array binding signal (z-score),[7],-0.221
same,glycan array binding signal (z-score),[8],0.306
same,glycan array binding signal (z-score),[9],0.263
same,glycan array binding signal (z-score),[10],0.048
same,glycan array binding signal (z-score),[11],-0.583
same,glycan array binding signal (z-score),[12],-1.31
same,glycan array binding signal (z-score),[13],-0.768
same,glycan array binding signal (z-score),[14],0.293
same,glycan array binding signal (z-score),[15],-0.762
same,glycan array binding signal (z-score),[16],0.426
same,glycan array binding signal (z-score),Fuc(a1-2)Gal6S(b1-4)Glc,-0.087
same,glycan array binding signal (z-score),[17],-1.94
same,glycan array binding signal (z-score),Fuc(a1-2)[Gal(a1-3)]Gal,-1.03
same,glycan array binding signal (z-score),[18],0.064
same,glycan array binding signal (z-score),[19],1.38
same,glycan array binding signal (z-score),[20],-0.769
same,glycan array binding signal (z-score),[21],1.45
same,glycan array binding signal (z-score),[22],-0.667
same,glycan array binding signal (z-score),[23],2.8
same,glycan array binding signal (z-score),[24],0.083
same,glycan array binding signal (z-score),[25],0.397
same,glycan array binding signal (z-score),[26],0.952
same,glycan array binding signal (z-score),[27],1.75
same,glycan array binding signal (z-score),[28],-0.282

# 2 records picked at random from those above, as already listed:
binder,measurement,setting,value
"Thrombomodulin Extracellular (Mus musculus), P15306 (protein) MLGIFFLGVLAPASLGLSALAKLQPTGSQCVEHECFALFQGPATFLDASQACQRLQGHLMTVRSSVAADVISLLLSQSSMDLGPWIGLQLPQGCDDPVHLGPLRGFQWVTGDNHTSYSRWARPNDQTAPLCGPLCVTVSTATEAAPGEPAWEEKPCETETQGFLCEFYFTASCRPLTVNTRDPEAAHISSTYNTPFGVSGADFQTLPVGSSAAVEPLGLELVCRAPPGTSEGHWAWEATGAWNCSVENGGCEYLCNRSTNEPRCLCPRDMDLQADGRSCARPVVQSCNELCEHFCVSNAEVPGSYSCMCETGYQLAADGHRCEDVDDCKQGPNPCPQLCVNTKGGFECFCYDGYELVDGECVELLDPCFGSNCEFQCQPVSPTDYRCICAPGFAPKPDEPHKCEMFCNETSCPADCDPNSPTVCECPEGFILDEGSVCTDIDECSQGECFTSECRNFPGSYECICGPDTALAGQISKDCDPIPVREDTKEEEGSGEPPVSPTPGSPTGPPSARPVHSGVLIGISIASLSLVVALLALLCHLRKKQGAARAELEYKCASSAKEVVLQHVRTDRTLQKF",glycan array binding signal (z-score),[6],-0.316
same,glycan array binding signal (z-score),[15],-0.762
